This note sets out measurements from the supplement of paper PMC7666118.

Amino acid sequences for entries named in this document (tags omitted). A change or cut given only in a name is not applied to a line headed by its entry.
UniProt Q99961: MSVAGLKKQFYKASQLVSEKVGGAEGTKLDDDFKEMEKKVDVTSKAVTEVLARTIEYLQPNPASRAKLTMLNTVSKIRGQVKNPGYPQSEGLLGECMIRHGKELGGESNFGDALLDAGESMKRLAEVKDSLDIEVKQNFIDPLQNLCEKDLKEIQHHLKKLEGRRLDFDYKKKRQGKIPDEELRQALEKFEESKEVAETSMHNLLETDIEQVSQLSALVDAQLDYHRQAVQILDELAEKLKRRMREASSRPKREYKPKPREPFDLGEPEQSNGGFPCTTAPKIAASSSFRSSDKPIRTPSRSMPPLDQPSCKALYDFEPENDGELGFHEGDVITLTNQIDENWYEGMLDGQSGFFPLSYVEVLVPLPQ
UniProt Q92485: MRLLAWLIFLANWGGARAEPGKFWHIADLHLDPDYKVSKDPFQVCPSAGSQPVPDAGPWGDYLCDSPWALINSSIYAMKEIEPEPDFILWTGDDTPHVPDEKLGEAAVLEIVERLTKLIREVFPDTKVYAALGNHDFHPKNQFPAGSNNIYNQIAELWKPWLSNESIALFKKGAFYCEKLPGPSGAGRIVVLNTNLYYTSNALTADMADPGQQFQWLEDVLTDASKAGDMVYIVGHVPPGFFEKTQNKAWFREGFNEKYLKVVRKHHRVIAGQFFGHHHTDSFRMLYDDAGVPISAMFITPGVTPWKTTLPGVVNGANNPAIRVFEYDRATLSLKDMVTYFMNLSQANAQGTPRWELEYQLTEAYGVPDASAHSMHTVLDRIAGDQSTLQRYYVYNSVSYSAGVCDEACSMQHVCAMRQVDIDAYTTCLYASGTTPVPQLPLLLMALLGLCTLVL
UniProt O75387: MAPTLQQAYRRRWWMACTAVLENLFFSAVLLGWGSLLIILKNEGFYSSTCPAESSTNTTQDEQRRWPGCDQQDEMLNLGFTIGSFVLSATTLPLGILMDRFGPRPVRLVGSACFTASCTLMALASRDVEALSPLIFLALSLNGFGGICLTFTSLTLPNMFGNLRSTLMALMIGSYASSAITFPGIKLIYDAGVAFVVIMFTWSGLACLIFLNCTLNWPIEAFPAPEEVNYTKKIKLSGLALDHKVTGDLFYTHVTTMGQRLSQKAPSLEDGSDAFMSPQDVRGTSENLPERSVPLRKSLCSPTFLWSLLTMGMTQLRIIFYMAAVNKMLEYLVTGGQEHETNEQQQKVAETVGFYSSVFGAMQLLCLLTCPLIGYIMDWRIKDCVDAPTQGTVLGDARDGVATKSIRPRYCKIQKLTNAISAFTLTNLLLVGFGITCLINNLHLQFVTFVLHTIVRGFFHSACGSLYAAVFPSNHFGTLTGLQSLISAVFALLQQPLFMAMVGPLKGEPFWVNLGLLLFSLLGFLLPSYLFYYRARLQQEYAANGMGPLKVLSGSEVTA
UniProt Q5FBB7: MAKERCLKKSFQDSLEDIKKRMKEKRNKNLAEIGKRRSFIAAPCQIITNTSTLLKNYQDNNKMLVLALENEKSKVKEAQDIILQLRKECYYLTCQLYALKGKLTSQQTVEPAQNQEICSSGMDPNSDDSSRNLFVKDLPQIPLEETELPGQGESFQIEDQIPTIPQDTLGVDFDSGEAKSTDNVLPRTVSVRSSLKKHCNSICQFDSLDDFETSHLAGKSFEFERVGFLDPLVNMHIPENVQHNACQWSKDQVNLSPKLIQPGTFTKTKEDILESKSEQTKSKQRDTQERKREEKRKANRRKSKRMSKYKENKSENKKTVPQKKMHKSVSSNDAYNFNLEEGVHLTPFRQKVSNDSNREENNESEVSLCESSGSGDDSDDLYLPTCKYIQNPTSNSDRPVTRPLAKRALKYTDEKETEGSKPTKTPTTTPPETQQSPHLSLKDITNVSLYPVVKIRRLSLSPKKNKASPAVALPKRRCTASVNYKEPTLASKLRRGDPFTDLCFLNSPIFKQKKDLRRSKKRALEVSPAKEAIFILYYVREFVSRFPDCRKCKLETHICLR
UniProt Q96AG3: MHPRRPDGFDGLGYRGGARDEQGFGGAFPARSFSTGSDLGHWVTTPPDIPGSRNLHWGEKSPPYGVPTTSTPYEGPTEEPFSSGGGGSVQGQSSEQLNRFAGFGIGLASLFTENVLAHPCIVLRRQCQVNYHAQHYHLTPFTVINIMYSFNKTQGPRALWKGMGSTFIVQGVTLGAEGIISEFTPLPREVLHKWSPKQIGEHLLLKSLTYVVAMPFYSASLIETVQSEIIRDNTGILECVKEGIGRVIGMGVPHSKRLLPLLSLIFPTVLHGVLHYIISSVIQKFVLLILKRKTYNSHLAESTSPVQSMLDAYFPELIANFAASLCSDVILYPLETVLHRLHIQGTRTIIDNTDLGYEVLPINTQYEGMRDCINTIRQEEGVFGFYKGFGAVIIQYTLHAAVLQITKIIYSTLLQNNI
UniProt P50452: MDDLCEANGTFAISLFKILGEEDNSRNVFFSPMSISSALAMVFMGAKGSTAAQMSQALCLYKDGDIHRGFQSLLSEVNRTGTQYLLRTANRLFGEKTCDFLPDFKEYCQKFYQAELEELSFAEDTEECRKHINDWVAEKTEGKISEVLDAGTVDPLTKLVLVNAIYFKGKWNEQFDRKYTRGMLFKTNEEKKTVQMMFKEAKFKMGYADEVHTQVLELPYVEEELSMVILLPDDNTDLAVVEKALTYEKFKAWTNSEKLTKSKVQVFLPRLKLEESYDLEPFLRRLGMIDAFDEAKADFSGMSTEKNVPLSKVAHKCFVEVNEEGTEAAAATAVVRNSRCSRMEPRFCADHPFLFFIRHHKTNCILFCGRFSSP
UniProt Q05519: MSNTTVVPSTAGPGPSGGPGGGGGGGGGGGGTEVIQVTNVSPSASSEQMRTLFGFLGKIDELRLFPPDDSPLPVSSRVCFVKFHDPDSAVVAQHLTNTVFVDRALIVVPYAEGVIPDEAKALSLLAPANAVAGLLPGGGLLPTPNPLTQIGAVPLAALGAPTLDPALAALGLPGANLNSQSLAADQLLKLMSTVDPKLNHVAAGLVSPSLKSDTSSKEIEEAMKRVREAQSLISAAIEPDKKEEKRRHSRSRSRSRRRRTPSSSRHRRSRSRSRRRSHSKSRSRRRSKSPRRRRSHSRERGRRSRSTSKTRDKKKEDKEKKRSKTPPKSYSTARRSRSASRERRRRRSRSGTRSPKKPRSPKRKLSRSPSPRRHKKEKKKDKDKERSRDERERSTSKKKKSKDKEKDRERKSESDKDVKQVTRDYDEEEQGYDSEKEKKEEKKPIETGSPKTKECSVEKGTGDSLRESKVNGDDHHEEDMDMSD
UniProt Q9Y2D2: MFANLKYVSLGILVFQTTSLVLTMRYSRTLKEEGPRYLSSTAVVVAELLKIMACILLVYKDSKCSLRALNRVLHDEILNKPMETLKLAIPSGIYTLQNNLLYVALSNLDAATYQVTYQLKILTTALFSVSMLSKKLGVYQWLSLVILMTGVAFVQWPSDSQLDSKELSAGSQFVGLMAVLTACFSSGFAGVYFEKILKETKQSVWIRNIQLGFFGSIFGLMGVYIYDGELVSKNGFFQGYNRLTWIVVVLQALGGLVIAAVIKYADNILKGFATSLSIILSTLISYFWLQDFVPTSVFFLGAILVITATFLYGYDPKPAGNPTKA
UniProt O60493, whole entry: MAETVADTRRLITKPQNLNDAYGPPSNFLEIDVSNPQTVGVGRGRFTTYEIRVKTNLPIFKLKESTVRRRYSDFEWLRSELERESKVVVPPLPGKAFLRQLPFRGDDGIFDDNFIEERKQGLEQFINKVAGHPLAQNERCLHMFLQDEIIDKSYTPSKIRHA
UniProt Q9BXP2: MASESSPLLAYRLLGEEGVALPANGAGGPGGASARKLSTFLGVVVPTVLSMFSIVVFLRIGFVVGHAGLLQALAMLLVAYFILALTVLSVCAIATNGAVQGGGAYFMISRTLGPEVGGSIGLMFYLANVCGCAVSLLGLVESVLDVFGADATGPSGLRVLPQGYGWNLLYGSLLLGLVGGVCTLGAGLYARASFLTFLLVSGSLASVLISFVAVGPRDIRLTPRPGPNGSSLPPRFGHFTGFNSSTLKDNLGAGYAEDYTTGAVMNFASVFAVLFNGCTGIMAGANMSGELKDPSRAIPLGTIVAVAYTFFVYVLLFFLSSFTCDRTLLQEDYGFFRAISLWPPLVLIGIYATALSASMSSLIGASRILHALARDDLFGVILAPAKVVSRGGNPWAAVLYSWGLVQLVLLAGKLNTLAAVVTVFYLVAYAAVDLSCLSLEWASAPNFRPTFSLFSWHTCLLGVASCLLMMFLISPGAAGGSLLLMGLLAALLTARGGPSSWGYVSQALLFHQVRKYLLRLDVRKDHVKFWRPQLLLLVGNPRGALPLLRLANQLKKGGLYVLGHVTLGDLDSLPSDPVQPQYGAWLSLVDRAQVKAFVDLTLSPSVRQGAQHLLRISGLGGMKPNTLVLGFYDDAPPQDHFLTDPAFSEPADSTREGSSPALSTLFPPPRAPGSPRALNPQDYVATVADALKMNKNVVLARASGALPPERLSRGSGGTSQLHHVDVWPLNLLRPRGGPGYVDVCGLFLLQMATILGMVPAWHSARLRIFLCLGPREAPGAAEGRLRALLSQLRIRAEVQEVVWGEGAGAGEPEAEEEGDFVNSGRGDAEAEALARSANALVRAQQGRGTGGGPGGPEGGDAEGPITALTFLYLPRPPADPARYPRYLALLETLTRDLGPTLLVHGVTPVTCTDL
UniProt O95391: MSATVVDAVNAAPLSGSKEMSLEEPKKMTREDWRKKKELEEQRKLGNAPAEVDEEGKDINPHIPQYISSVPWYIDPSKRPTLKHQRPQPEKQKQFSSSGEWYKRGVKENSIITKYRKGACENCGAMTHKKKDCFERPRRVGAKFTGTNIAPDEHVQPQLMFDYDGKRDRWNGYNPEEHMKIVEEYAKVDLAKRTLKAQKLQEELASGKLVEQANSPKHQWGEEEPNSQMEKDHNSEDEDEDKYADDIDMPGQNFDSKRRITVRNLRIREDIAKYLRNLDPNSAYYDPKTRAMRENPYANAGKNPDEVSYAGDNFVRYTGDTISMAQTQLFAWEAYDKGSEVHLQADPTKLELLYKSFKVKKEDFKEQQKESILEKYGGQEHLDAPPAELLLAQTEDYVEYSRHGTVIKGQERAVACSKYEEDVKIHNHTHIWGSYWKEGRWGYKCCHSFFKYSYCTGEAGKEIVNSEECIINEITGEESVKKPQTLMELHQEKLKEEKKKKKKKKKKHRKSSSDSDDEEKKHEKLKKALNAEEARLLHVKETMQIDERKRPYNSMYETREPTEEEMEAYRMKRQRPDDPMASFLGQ
UniProt Q7Z7L1: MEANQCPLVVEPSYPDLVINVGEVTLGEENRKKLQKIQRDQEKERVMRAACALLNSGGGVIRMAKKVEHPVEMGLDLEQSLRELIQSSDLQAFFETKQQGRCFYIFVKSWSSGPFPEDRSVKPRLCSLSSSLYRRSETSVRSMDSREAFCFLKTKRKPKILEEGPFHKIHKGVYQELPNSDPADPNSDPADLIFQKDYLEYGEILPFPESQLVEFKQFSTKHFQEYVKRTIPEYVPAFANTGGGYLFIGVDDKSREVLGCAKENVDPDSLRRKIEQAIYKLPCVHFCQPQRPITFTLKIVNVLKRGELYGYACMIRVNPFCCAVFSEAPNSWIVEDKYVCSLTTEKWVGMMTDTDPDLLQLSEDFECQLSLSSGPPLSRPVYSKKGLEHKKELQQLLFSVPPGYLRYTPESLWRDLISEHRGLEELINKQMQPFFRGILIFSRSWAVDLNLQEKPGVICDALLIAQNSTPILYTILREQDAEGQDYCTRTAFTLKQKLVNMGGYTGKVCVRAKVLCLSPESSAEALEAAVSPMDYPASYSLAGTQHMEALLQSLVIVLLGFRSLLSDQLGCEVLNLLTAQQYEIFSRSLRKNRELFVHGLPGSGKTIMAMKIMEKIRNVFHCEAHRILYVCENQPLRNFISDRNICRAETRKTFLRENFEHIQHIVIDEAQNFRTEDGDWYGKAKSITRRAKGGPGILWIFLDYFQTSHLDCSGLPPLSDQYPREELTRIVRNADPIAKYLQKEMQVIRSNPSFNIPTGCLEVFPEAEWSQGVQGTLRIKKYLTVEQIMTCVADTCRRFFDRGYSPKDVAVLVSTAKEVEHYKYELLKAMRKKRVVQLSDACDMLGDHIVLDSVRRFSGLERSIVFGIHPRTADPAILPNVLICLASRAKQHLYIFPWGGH
UniProt Q15796, whole entry: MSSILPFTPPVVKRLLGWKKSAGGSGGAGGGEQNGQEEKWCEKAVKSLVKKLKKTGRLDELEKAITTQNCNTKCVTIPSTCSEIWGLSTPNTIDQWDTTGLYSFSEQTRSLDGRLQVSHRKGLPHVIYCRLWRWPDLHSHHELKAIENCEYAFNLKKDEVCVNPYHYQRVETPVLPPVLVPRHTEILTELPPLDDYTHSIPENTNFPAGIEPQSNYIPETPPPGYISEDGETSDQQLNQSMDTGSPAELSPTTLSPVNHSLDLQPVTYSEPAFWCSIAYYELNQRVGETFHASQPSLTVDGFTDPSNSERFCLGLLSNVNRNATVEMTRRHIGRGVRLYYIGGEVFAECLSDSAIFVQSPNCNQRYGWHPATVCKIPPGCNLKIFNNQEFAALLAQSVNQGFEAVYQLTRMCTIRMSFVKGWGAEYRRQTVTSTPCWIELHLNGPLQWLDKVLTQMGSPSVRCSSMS

This is one part of the list.

Compound in this assay: COc1ccc(Cn2ccc3cc(C)c(C(=O)NO)cc32)cc1
The assay is described as follows: dose-dependent thermal stabilisation call (2D-TPP, DLPTP, 10% FDR) (binary (1 = stabilised)); higher = stabilised by the compound. As to conditions: system: HL-60 intact cells; concentration range 0.04-10 µM. How it is done:
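2D thermal proteome profiling in intact HL-60 cells treated with BRD-3811 (0, 0.04, 0.29, 2, 10 uM) for 90 min at 37 C, then heated 3 min at one of 12 temperatures (42-63.9 C). Soluble protein was quantified by TMT10 MS. The value is the DLPTP call of the paper: dose-dependent thermal stabilisation over all temperatures at 10% FDR (F-test of a dose-response against a flat model); one experiment, one call per tested protein.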
Take SNX2 (UniProt O60749): the “dose-dependent thermal stabilisation call” value is inactive: 0.
For SERPINC1 (UniProt P01008) the value was inactive: 0; for SLC22A5 (UniProt O76082), inactive: 0.
Take SNX12 (UniProt Q9UMY4): the “dose-dependent thermal stabilisation call” value is inactive: 0.
For the target SH3GL1 (UniProt Q99961), the “dose-dependent thermal stabilisation call” value was inactive: 0.
For SMPDL3B (UniProt Q92485) the value was inactive: 0; for SLC43A1 (UniProt O75387), inactive: 0; for SLC25A16 (UniProt P16260), inactive: 0.
Turning to SLC20A1 (UniProt Q8WUM9), the “dose-dependent thermal stabilisation call” value is inactive: 0.
With SGOL1 (UniProt Q5FBB7) the figure was inactive: 0.
On to SLC25A46 (UniProt Q96AG3), for which the “dose-dependent thermal stabilisation call” value is inactive: 0.
For SLC25A28 (UniProt Q96A46) the value was inactive: 0.
For SERPINB8 (UniProt P50452) the value was inactive: 0; for SHOC2 (UniProt Q9UQ13), inactive: 0; for SFRS11 (UniProt Q05519), inactive: 0.
For SLC35A3 (UniProt Q9Y2D2) the value was inactive: 0; for SNX6 (UniProt Q9UNH7), inactive: 0; for SNX3 (UniProt O60493), inactive: 0.
As for SLC12A9 (UniProt Q9BXP2), the “dose-dependent thermal stabilisation call” value is inactive: 0.
For SERPINB1 (UniProt P30740) the value was inactive: 0; for SNX4 (UniProt O95219), inactive: 0; for SMS (UniProt P52788), inactive: 0.
For SIRT1 (UniProt Q96EB6) the value was inactive: 0; for SLC15A4 (UniProt Q8N697), inactive: 0; for SHQ1 (UniProt Q6PI26), inactive: 0.
With SMPD2 (UniProt O60906) the figure was inactive: 0.
SH3KBP1 (UniProt Q96B97): the “dose-dependent thermal stabilisation call” value was inactive: 0.
For SMC5 (UniProt Q8IY18) the value was inactive: 0; for SLU7 (UniProt O95391), inactive: 0; for SLFN11 (UniProt Q7Z7L1), inactive: 0.
For SLCO4A1 (UniProt Q96BD0) the value was inactive: 0; for SH3BGRL2 (UniProt Q9UJC5), inactive: 0; for SLC35E3 (UniProt Q7Z769), inactive: 0.
For SLC35A5 (UniProt Q9BS91) the value was inactive: 0.
Turning to SMAD2 (UniProt Q15796), the “dose-dependent thermal stabilisation call” value was inactive: 0.
For SNX1 (UniProt Q13596) the value was inactive: 0.
